Assay results as given in patent publication US6376710B2, “Amidine compounds and their use as pesticides” (Sumitomo Chemical Co., Ltd., priority 2000, dated 2002).
Some entries share one result that the patent states for a list of compounds.

Test system: German cockroach (Blattella germanica)
Assay: Test Example 1: topical application of acetone solution to German cockroach female adults, mortality
Assay type: in vivo
Settings: 20 μg/μl solution in acetone, 1 μl applied to sternal prothorax of female adults; after 7 days

| SMILES | mortality |
| --- | --- |
| CNC(=Nc1c(Cl)cccc1Cl)C(F)(F)F [comparative compound A, N′-(2,6-dichlorophenyl)-2,2,2-trifluoromethyl-N-methylacetamidine, reference compound] | ≤ 25% |
| CNC(=Nc1c(Cl)cc(C(F)(F)F)cc1Cl)C(F)(F)F [present compound 55, N′-(2,6-Dichloro-4-trifluoromethylphenyl)-2,2,2-trifluoro-N-methylacetamidine] | ≥ 90% |
| CCNC(=Nc1ccc(C(F)(F)F)cc1[N+](=O)[O-])C(Cl)Cl [comparative compound C, 2,2-dichloro-N-ethyl-N′-(2-nitro-4-trifluoromethylphenyl)acetamidine, reference compound] | ≤ 25% |
| CCNC(=Nc1c(Cl)cc(C(F)(F)F)cc1Cl)C(Cl)Cl [present compound 58, N′-(2,6-Dichloro-4-trifluoromethylphenyl)-2,2-dichloro-N-ethylacetamidine] | ≥ 90% |
| CCNC(=Nc1c(Cl)cc(Cl)cc1Cl)C(Cl)Cl [comparative compound B, 2,2-dichloro-N-ethyl-N′-(2,4,6-trichlorophenyl)acetamidine, reference compound] | ≤ 25% |
